For assay [1], the target named is T1, Wdr4 fused with a Flag tag (mouse) (UniProt Q9EP82).
T1 sequence: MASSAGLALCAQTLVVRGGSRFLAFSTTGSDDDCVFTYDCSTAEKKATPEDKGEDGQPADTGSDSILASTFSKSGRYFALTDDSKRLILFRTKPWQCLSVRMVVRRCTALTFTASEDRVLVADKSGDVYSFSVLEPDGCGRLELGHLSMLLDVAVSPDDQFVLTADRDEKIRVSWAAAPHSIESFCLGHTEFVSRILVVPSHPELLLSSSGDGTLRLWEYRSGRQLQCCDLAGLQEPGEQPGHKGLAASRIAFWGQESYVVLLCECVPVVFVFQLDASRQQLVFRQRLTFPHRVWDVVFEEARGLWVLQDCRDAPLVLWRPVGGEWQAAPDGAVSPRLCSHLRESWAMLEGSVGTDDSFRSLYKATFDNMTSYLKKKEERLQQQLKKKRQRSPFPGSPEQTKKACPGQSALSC
Nature of the assay: co-IP; N2a cells expressing Flag-Wdr4; RIPA lysate incubated with anti-Flag M2 beads at 4 °C for 3-4 h; bound proteins by western blot. Background: In western blotting, separated proteins are transferred to a membrane and probed.

Amino acid sequences for entries named in this document (tags omitted).
UniProt Q03141: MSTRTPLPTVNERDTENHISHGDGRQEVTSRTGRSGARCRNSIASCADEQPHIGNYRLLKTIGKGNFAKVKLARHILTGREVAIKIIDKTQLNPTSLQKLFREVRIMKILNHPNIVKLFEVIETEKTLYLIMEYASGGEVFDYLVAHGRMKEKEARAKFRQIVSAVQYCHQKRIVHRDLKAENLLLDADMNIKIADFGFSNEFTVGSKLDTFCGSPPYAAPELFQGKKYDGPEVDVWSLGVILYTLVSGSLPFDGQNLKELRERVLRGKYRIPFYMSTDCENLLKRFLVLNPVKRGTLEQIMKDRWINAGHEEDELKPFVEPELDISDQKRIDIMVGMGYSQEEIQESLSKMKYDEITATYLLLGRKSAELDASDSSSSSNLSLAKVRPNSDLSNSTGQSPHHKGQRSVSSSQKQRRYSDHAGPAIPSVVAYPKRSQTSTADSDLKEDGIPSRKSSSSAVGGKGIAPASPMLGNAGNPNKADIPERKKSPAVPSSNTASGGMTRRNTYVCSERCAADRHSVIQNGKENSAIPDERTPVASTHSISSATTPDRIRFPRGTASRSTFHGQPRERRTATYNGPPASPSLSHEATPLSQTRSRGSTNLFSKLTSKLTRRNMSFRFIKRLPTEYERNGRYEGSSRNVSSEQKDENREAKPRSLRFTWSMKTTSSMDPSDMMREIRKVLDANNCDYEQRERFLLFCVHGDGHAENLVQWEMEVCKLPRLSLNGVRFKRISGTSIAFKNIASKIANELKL

For assay [2], the target named is T2, endogenous Wdr4 (mouse (endogenous, cells not named)) (UniProt Q9EP82).
T2 sequence: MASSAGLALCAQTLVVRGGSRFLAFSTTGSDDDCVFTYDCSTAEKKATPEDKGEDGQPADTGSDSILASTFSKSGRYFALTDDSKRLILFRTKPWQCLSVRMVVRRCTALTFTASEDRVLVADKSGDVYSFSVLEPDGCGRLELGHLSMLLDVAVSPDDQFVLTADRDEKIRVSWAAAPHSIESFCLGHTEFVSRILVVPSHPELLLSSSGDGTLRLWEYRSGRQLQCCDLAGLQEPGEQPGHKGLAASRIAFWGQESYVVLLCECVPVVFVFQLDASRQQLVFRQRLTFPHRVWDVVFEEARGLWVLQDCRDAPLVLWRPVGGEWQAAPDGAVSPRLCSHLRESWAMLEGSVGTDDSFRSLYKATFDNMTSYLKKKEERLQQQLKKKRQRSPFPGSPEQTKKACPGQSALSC
Nature of the assay: co-IP; endogenous proteins; RIPA lysate incubated with anti-Wdr4 antibody conjugated with Protein A-Sepharose overnight; Arhgap17 detected by western blot (sc-514438).

No constants are given. Whether binding was seen depends on the method and setting. Binding seen in cells or lysates may run through a third protein. Some binding calls cover weakened binding; strength is not graded here. For some of these results: Where a sequence is shown, tags or fusion partners need not be part of it.

Among the data in article PMC9867761 are binding values, retold here.

For Mark3 (from UniProt Q03141 1-753), in assay [1], the binding result is “no binding”.

B1: Arhgap17 (protein, UniProt Q3UIA2-4 1-727)
chain: MKKQFNRMKQLANQTVGRAEKTEVLSEDLLQIERRLDTVRSMCHHSHKRLIACFQGQHGTDAERRHKKLPLTALAQNMQEASAQLEESLLGKMLETCGDAENQLALELSQHEVFVEKEIMDPLYGIAEVEIPNIQKQRKQLARLVLDWDSVRARWNQAHKSSGTNFQGLPSKIDTLKEEMDEAGNKVEQCKDQLAADMYNFMAKEGEYGKFFVTLLEAQADYHRKALAVLEKALPEMRAHQDKWAEKPAFGTPLEEHLKRSGREIALPIEACVMLLLETGMKEEGLFRIGAGASKLKKLKAALDCSTSHLDEFYSDPHAVAGALKSYLRELPEPLMTFSLYEEWTQVASVQDQDKKLQYLWTTCQKLPPQNFVNFRYLIKFLAKLAQTSDVNKMTPSNIAIVLGPNLLWAKQEGTLAEIAAATSVHVVAVIEPIIQHADWFFPGEVEFNVSEAFVPLATPNSNHSSHTGNDSDSGTLERKRPASMAVMEGDLVKKESPPKPKDSVSAAVPAAGRNSNQMTTVPNQAQTGGNSHQLSVSTPHSAAGPSPHTLRRAVKKPAPAPPKPGNLPPGHPGGQSSPGTGTSPKPSARSPSPPQQQQQQQQQQQQQQQQQTPGMRRCSSSLPPIQAPSHPPPQPPTQPRLGEQGPEPGPTPPQTPTPPSTPPLAKQNPSQSETTQLHGTLPRPRPVPKPRNRPSVPPPPHPPGTHTVDGGLTSSVPTASRIVTDV
Regarding B1, the binding result in assay [1] and in assay [2] was “binds” throughout.

B2: Stag2 (protein, UniProt O35638 1-1231)
chain: MIAAPEIPTDFNLLQESETHFSSDTDFEDIEGKNQKQGKGKTCKKGKKGPAEKGKSGNGGGKPPSGSNRMNGHHQQNGVENMMLFEVVKMGKSAMQSVVDDWIESYKHDRDIALLDLINFFIQCSGCKGVVTAEMFRHMQNSEIIRKMTEEFDEDSGDYPLTMAGPQWKKFKSSFCEFIGVLVRQCQYSIIYDEYMMDTVISLLTGLSDSQVRAFRHTSTLAAMKLMTALVNVALNLSINMDNTQRQYEAERNKMIGKRANERLELLLQKRKELQENQDEIENMMNAIFKGVFVHRYRDAIAEIRAICIEEIGIWMKMYSDAFLNDSYLKYVGWTMHDKQGEVRLKCLTALQGLYYNKELNSKLELFTSRFKDRIVSMTLDKEYDVAVQAIKLLTLVLQSSEEVLTAEDCENVYHLVYSAHRPVAVAAGEFLYKKLFSRRDPEEDGLMKRRGRQGPNANLVKTLVFFFLESELHEHAAYLVDSMWDCATELLKDWECMNSLLLEEPLSGEEALTDRQESALIEIMLCTIRQAAECHPPVGRGTGKRVLTAKEKKTQLDDRTRITELFAVALPQLLAKYSVDAEKVTNLLQLPQYFDLEIYTTGRLEKHLDALLRQIRNIVEKHTDTDVLEACSKTYHALCNEEFTIFNRVDISRSQLIDELADKFNRLLEDFLQEGEEPDEDDAYQVLSTLKRITAFHNAHDLSKWDLFACNYKLLKTGIENGDMPEQIVIHALQCAHYVILWQLAKITESTSTKEDLLRLKKQMRVFCQICQHYLTNVNTTVKEQAFTILCDILMIFSHQIMSGGRDMLEPLVYTPDSSLQSELLSFILDHVFIEQDDDSNSADGQQEDEASKIEALHKRRNLLAAFCKLIVYTVVEMNTAADIFKQYMKYYNDYGDIIKETMSKTRQIDKIQCAKTLILSLQQLFNEMIQENGYNFDRSSSTFSGIKELARRFALTFGLDQLKTREAIAMLHKDGIEFAFKEPNPQGESHPPLNLAFLDILSEFSSKLLRQDKRTVYVYLEKFMTFQMSLRREDVWLPLMSYRNSLLAGGDDDTMSVISGMSSRGSTVRSKKSKPSTGKRKVVEGMQLALPEESSSSDSMWLSREQTLHTPVMMQTPQLTSTIMREPKRLRPEDSFMSVYPMQAEHHQTPLDYNRRGTSLMEDDEEPIVEDVMMSSEGRIEDLNEGMDFDTMDIDLPPSKNRRERTELKPDFFDPASIMDESVLGVSMF
Take B2: the binding entry in assay [1] was “no binding”.
